According to paper PMC4494947:
These are yes or no findings as the source states them, for the method shown. Binding seen in cells or lysates may run through a third protein. Tags and fused reporters may be left off the sequences shown.

By UniProt entry, the sequences of proteins in these tests, tags left out. Residues count along the entry.
UniProt P98161, residues 24-4303: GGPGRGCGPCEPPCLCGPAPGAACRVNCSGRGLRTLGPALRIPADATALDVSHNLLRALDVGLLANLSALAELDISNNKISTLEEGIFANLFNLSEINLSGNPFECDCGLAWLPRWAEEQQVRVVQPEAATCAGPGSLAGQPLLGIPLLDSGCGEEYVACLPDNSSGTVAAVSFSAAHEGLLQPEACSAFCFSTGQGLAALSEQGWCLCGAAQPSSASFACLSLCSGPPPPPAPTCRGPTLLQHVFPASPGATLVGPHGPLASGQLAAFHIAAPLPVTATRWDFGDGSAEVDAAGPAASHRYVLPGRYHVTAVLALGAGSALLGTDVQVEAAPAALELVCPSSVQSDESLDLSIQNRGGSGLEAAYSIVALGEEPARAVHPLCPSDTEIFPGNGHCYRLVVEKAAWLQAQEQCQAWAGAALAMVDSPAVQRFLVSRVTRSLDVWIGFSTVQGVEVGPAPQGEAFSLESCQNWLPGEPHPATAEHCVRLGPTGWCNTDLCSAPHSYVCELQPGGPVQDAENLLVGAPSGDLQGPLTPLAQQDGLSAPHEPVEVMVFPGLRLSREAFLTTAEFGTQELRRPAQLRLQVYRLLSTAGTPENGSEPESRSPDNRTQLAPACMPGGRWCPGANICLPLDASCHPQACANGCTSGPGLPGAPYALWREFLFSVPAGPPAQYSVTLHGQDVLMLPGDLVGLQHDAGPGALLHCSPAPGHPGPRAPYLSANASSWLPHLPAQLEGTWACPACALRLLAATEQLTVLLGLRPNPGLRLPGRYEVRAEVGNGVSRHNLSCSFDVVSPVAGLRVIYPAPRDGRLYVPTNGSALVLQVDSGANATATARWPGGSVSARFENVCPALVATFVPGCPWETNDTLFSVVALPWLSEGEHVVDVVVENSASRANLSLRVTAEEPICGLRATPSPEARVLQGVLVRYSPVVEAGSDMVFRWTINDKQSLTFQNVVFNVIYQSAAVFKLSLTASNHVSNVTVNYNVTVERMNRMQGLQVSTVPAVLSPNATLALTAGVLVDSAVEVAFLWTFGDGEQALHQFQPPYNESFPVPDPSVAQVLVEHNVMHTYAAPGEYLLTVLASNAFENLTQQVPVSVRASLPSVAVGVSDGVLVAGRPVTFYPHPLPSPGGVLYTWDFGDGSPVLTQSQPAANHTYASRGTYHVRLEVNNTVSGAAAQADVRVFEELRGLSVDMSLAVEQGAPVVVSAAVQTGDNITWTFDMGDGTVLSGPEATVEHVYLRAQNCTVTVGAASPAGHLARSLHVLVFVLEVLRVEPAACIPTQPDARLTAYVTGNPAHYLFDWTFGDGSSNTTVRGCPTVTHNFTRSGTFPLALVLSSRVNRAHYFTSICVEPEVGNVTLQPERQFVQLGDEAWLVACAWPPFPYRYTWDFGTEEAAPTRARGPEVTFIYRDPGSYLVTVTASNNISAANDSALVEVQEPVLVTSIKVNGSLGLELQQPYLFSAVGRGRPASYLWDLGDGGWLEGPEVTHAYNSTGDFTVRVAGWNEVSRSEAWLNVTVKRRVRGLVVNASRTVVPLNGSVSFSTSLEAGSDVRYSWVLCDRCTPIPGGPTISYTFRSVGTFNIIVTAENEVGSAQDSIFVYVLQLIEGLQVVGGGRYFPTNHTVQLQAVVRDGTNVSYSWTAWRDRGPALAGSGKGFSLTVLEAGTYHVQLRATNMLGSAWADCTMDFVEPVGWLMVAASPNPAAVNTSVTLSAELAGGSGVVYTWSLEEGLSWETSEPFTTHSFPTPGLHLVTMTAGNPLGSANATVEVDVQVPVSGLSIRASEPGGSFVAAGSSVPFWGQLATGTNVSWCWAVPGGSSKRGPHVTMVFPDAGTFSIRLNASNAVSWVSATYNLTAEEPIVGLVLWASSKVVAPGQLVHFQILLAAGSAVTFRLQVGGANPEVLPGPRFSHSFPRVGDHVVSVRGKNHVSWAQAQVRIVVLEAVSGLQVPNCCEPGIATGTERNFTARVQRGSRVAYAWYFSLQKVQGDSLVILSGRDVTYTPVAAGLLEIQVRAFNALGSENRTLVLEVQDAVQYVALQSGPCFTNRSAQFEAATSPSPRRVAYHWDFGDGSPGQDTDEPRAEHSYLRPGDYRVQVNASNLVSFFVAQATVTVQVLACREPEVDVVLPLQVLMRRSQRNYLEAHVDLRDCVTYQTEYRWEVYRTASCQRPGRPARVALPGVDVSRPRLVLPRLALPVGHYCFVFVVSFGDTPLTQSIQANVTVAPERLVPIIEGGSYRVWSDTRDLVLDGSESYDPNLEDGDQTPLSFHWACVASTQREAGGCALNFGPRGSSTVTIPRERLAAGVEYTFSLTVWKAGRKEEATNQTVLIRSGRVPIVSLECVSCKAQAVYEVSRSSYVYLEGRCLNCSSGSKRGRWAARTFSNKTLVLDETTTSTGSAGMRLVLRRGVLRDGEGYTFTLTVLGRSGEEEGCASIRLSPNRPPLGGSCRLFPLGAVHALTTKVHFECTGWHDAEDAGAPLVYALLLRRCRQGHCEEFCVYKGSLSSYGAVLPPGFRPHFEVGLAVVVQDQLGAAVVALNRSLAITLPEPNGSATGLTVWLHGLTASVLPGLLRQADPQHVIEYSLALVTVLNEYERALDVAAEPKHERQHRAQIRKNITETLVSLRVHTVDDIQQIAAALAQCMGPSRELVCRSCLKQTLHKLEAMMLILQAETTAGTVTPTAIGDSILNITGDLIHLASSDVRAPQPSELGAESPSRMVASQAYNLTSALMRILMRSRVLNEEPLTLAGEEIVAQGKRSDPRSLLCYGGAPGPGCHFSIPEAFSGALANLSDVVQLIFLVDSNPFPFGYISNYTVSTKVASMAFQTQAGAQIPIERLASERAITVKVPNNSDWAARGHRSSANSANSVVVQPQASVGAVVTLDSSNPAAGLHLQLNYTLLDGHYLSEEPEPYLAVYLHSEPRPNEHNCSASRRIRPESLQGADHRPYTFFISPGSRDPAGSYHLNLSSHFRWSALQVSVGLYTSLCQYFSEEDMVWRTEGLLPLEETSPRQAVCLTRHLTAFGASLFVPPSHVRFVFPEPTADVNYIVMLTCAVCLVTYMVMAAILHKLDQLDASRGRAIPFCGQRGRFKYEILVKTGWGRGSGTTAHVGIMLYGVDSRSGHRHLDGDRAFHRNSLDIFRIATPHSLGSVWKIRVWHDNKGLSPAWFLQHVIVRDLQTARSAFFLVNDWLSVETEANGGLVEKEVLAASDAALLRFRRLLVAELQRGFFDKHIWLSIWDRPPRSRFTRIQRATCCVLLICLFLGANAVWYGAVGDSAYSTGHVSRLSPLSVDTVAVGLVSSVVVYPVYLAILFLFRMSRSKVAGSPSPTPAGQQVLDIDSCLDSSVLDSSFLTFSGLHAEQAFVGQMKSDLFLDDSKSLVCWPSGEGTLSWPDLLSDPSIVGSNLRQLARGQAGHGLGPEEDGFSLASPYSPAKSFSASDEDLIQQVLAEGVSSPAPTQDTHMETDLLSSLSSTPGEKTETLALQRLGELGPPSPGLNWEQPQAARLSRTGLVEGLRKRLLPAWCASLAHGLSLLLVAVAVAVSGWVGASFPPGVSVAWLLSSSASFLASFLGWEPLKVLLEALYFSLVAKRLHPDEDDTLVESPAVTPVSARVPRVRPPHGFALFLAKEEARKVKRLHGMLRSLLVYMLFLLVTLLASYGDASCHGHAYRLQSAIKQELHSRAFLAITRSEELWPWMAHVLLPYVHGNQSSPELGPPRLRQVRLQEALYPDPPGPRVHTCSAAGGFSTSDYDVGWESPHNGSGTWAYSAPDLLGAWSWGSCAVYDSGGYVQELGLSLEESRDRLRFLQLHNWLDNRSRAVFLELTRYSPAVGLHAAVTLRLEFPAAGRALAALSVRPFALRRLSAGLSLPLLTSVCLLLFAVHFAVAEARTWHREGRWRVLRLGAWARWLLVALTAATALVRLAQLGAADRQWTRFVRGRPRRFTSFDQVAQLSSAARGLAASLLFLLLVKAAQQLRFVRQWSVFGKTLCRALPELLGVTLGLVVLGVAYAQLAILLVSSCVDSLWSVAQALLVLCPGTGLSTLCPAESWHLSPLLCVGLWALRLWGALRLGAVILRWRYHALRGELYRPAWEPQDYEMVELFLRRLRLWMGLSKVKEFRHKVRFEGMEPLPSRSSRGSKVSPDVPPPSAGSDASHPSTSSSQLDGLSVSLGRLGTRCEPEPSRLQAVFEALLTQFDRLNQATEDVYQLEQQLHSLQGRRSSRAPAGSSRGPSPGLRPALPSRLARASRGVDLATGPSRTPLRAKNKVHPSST
UniProt P09211: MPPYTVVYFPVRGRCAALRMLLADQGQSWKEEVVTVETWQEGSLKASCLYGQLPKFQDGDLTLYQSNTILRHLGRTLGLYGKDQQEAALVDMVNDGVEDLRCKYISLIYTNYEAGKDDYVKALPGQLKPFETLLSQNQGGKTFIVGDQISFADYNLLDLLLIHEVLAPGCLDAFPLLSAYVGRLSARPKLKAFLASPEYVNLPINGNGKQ

T1: NHE9 with Flag tag (human) (UniProt Q8IVB4)
T1 sequence: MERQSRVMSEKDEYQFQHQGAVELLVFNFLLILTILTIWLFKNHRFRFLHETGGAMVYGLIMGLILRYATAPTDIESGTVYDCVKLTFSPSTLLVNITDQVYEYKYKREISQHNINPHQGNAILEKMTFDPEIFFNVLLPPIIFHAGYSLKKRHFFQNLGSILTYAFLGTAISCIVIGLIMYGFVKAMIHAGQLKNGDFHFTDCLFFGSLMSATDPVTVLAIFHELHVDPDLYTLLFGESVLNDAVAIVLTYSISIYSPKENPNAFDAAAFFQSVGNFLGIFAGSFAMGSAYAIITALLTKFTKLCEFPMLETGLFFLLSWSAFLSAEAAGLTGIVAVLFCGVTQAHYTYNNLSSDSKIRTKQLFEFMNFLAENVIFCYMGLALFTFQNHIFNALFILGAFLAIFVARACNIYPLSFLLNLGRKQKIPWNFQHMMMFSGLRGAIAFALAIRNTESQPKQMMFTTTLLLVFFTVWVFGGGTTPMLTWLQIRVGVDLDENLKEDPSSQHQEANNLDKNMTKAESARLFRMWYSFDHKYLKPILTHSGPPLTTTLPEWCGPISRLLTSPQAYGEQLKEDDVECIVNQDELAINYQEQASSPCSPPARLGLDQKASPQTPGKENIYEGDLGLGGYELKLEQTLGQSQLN

B1: LIGO4 in pcDNA6/myc-HisB (protein, UniProt Q6UY18 29-593)
chain: GSCPAVCDCTSQPQAVLCGHRQLEAVPGGLPLDTELLDLSGNRLWGLQQGMLSRLSLLQELDLSYNQLSTLEPGAFHGLQSLLTLRLQGNRLRIMGPGVFSGLSALTLLDLRLNQIVLFLDGAFGELGSLQKLEVGDNHLVFVAPGAFAGLAKLSTLTLERCNLSTVPGLALARLPALVALRLRELDIGRLPAGALRGLGQLKELEIHLWPSLEALDPGSLVGLNLSSLAITRCNLSSVPFQALYHLSFLRVLDLSQNPISAIPARRLSPLVRLQELRLSGACLTSIAAHAFHGLTAFHLLDVADNALQTLEETAFPSPDKLVTLRLSGNPLTCDCRLLWLLRLRRHLDFGMSPPACAGPHHVQGKSLKEFSDILPPGHFTCKPALIRKSGPRWVIAEEGGHAVFSCSGDGDPAPTVSWMRPHGAWLGRAGRVRVLEDGTLEIRSVQLRDRGAYVCVVSNVAGNDSLRTWLEVIQVEPPNGTLSDPNITVPGIPGPFFLDSRGVAMVLAVGFLPFLTSVTLCFGLIALWSKGKGRVKHHMTFDFVAPRPSGDKNSGGNRVTAKLF

Target: T1, NHE9 with Flag tag (human)
Experiment: co-IP; lysates of NHE9 (Flag) stable transfectants transfected with myc-tagged partner; lysis buffer 20 mM Tris pH 7.5, 150 mM NaCl, 1% Triton X-100, 1 mM EDTA; anti-Flag beads, or anti-Myc antibody with Protein-A/G-agarose; blots with anti-Myc or anti-FLAG; also done after treatment of the cells with cisplatin, vinorelbine or X-rays (binding relatively weaker)

Molecule	binding
PKD1 in pcDNA6/myc-HisB (from UniProt P98161 24-4303)	no binding
GSTP1 in pcDNA6/myc-HisB (from UniProt P09211 1-210)	no binding
B1	no binding
